# Experimental data taken from paper PMC6785124, “Allosteric regulation of a prokaryotic small Ras-like GTPase contributes to cell polarity oscillations in bacterial motility” (PLoS Biology, 2019).
# Results are given in words; binding and its absence hold for the method and conditions named. Sequences can lack the tags named with a protein.
# Target: T1, Myxococcus xanthus Mutual gliding motility A, MxMglA(His6) (Myxococcus xanthus) (UniProt Q1DB04)
# T1 sequence: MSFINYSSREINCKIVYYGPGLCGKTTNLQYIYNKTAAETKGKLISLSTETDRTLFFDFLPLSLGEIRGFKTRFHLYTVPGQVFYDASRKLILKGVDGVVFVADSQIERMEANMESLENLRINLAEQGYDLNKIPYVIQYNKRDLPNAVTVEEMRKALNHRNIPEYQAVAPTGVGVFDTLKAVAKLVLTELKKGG
# Assay: fluorescence polarisation; fluorescence anisotropy of 400 nM mant-GDP (m-GDP) mixed with 2 μM MxMglA or its mutant, titrated with MxMglB or MxMglB^ΔCt (concentration as MglB dimer); one site-specific binding fit; both purified
substance,measurement,value
"MxMglB^ΔCt(His6), truncated MxMglB lacking the C-terminal helix (Myxococcus xanthus) (domain or fragment)",binding,no binding (only MxMglA bound to m-GDP)
